According to PubChem BioAssay AID1487 (National Center for Advancing Translational Sciences (NCATS), 2009):
The list shows a part of the results. The main result of the screen is listed elsewhere. These columns were measured beside it and carry no call. Compounds called inactive in the main read-out are mostly missing here. Words in brackets tell the shape of the fitted curve; partial curves, single points and poor fits give uncertain potencies.

Test: qHTS Assay for Modulators of Lamin A Splicing
Conditions: HeLa LMNA splicing GFP/RFP minigene ratio, 48 h
How it was run: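 S3 HeLa stable clones carrying a lamin A-EGFP splicing minigene plus DsRed2 were seeded at 600 cells/well in Opti-MEM with 2% FBS, pin-dosed and incubated 48 h at 37°C. Acumen cytometry (488 nm) gave the GFP/RFP total-intensity ratio.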

[1] = measured here: GFP splicing reporter channel
[2] = measured here: RFP viability control channel

Row | Compound | AC50 [1] | AC50 [2]
1 | CC(=O)Nc1nonc1-c1nnc(SCc2ccccc2F)n1C | 12.6 µM [rising, single point] | 
2 | Cc1cc(Cl)ccc1OCCCC(=O)Nc1cccnc1 |  | 15.8 µM [rising, single point]
3 | CC(=O)c1ccc(N2CCN(c3ncnc4c3c(-c3ccccc3)cn4-c3ccc(Cl)cc3)CC2)cc1 | 15.8 µM [falling, partial curve, poor fit] | 
4 | CN1C2CCC1/C(=C\c1ccccc1)C(=O)/C2=C\c1ccccc1 | 22.4 µM [falling, single point] | 35.5 µM [falling, single point]
5 | CC(=O)c1ccc(OCCn2cnc3ccccc32)cc1 | 2.51 µM [rising, single point] | 
6 | COc1ccc(CCNc2ncnc3c2cnn3-c2cc(Cl)ccc2C)cc1 |  | 35.5 µM [falling, partial curve, poor fit]
7 | Cc1ccccc1NC(=O)CCCSc1nc2ccccc2s1 | 11.2 µM [rising, single point] | 17.8 µM [rising, single point]
8 | Cc1ccc(NC(=O)c2cc(S(=O)(=O)NCCc3ccc(Cl)cc3)ccc2F)cc1 | 35.5 µM [falling, single point] | 35.5 µM [falling, single point]
9 | CCN(Cc1ccccc1)S(=O)(=O)c1ccc(C(=O)Nc2nnc(-c3ccccc3OC)o2)cc1 |  | 3.98 µM [rising, single point]
10 | S=C(Nc1ccccc1Cl)N1CCCCC1 |  | 0.141 µM [rising, full curve, poor fit]
11 | C/C=C/c1ccc(OCCCCOc2ccccc2C(C)=O)c(OC)c1 | 3.98 µM [rising, partial curve] | 17.8 µM [rising, partial curve]
12 | CC(C)(C)CNc1cc(N2CCOCC2)ccc1[N+](=O)[O-] | 0.631 µM [rising, full curve, poor fit] | 
13 | Cc1cccc(NC(=O)c2ccc(C3SCC(=O)N3CCc3ccccc3)cc2)c1 (stereo not drawn) |  | 12.6 µM [rising, partial curve]
14 | C=CCn1c(Sc2ccccc2)nc2c1c(=O)[nH]c(=O)n2C | 5.62 µM [falling, single point] | 4.47 µM [falling, full curve, poor fit]
15 | COc1ccc(NC(C)C(=O)Nc2ccc(C(C)(C)C)cc2)cc1Cl (stereo not drawn) |  | 11.2 µM [rising, single point]
16 | CCCCNC(=S)Nc1ccccc1Cc1ccccc1 | 35.5 µM [rising, partial curve, poor fit] | 11.2 µM [rising, partial curve]
17 | CC(=O)Nc1ccc(NC(=O)C(C)c2cccc(C(=O)c3ccccc3)c2)cc1 (stereo not drawn) | 12.6 µM [rising, single point] | 
18 | CCc1nnc(NC(=O)C2CCCN(c3nc4ccccc4s3)C2)s1 (stereo not drawn) |  | 20 µM [rising, single point]
19 | CCC(C)c1ccc(NC(=O)C2CCN(c3ncccn3)CC2)cc1 (stereo not drawn) | 12.6 µM [rising, single point] | 17.8 µM [rising, single point]
20 | COCC(=O)n1nc(-c2ccccc2)nc1NCc1ccc(F)cc1 |  | 11.2 µM [rising, partial curve, poor fit]
21 | Cc1nn(CC(=O)OCCOc2ccc(Br)cc2)c(C)c1[N+](=O)[O-] | 0.01 µM [rising, full curve, poor fit] | 
22 | Cc1ccc(CN2CCN(/N=C/c3sccc3C)CC2)c(C)c1 | 31.6 µM [rising, single point] | 31.6 µM [rising, single point]
23 | Cc1onc(-c2ccccc2Cl)c1C(=O)Nc1nnc(-c2cccc([N+](=O)[O-])c2)s1 |  | 12.6 µM [rising, partial curve]
24 | CCn1c(SCc2nc(-c3ccc(OC)c(OC)c3)no2)nnc1-c1cccs1 |  | 35.5 µM [rising, single point]
25 | COc1ccc(Cl)cc1NC(=S)NCCC(c1ccccc1)c1ccccc1 |  | 35.5 µM [rising, single point]
26 | CCOC(=O)c1c(NC(=O)c2ccc(S(=O)(=O)N(C)C3CCCCC3)cc2)sc2c1CCN(C(C)C)C2 |  | 35.5 µM [falling, single point]
27 | Cc1ccc(-c2ccc(SCC(=O)c3ccccc3)nn2)cc1 |  | 35.5 µM [rising, single point]

Arranged by count of non-hydrogen atoms (largest number first): part of the list above
Row | Compound | AC50 [1] | AC50 [2]
13 | Cc1cccc(NC(=O)c2ccc(C3SCC(=O)N3CCc3ccccc3)cc2)c1 (stereo not drawn) |  | 12.6 µM [rising, partial curve]
6 | COc1ccc(CCNc2ncnc3c2cnn3-c2cc(Cl)ccc2C)cc1 |  | 35.5 µM [falling, partial curve, poor fit]
18 | CCc1nnc(NC(=O)C2CCCN(c3nc4ccccc4s3)C2)s1 (stereo not drawn) |  | 20 µM [rising, single point]

Continuation:

Row | Compound | AC50 [1] | AC50 [2]
28 | Cc1ccc(Cl)cc1-n1ncc2c(N3CCN(Cc4ccccc4)CC3)ncnc21 | 17.8 µM [falling, partial curve] | 35.5 µM [falling, partial curve]
29 | COCCNc1ncnc2ccc(-c3cccnc3)cc12 | 1.12 µM [falling, partial curve, poor fit] | 1.78 µM [falling, partial curve, poor fit]
30 | BrC(/C=N/Nc1nc(N2CCOCC2)nc(N2CCOCC2)n1)=C/c1ccccc1 | 12.6 µM [falling, single point] | 0.0794 µM [falling, single point]
31 | Cc1ccc(C)c(NC(=S)NC(NC(=O)/C=C/c2ccccc2)C(Cl)(Cl)Cl)c1 (stereo not drawn) | 11.2 µM [falling, single point] | 11.2 µM [falling, partial curve]
32 | Cc1cccc(C(=O)Nc2ccnc(-c3cccnc3)n2)c1 | 0.00447 µM [falling, full curve, poor fit] | 
33 | CCOc1ccc(C(=O)NC(=S)Nc2ccccc2N2CCCCC2)cc1[N+](=O)[O-] |  | 10 µM [rising, partial curve]
34 | O=C(COc1cccnc1[N+](=O)[O-])Nc1cccc(S(=O)(=O)N2CCCCC2)c1 |  | 35.5 µM [rising, single point]
35 | N/C(=N\S(=O)(=O)c1ccccc1)c1ccc([N+](=O)[O-])cc1 | 17.8 µM [rising, partial curve] | 17.8 µM [rising, single point]
36 | CCOc1ncccc1C(=O)OC(C)C(=O)NC(=O)NC1CCCCC1 (stereo not drawn) | 0.02 µM [falling, full curve, poor fit] | 3.98 µM [falling, full curve]
37 | CCOC(=O)c1nnn(-c2nonc2-n2cccc2)c1-c1cccc([N+](=O)[O-])c1 | 0.0251 µM [rising, full curve, poor fit] | 
38 | Nc1cccc2c1C(=O)N(C(=O)c1cccc(S(=O)(=O)N3CCCCCC3)c1)C2=O |  | 35.5 µM [falling, partial curve, poor fit]
39 | COc1ccc2nc(N(Cc3cccnc3)C(=O)Cc3ccccc3)sc2c1 | 31.6 µM [falling, partial curve] | 35.5 µM [falling, partial curve, poor fit]
40 | Nc1[nH]nc2c1NN(c1ccc(Cl)cc1Cl)N2 |  | 22.4 µM [rising, partial curve, poor fit]
41 | Brc1ccc(-c2csc(-c3c[nH]c4ccccc34)n2)cc1 | 6.31 µM [rising, partial curve, poor fit] | 
42 | CCCCS(=O)(=O)N1C2=NC(C(=O)OC)=C(C(=O)OC)[C@@H]3N(Cc4ccccc4)c4ccccc4[C@]23C[C@H]1C(=O)OC | 0.00316 µM [rising, full curve, poor fit] | 
43 | COc1ccccc1CNC(=O)CN1C(=O)COc2ccc(S(=O)(=O)NC3CCCC3)cc21 | 12.6 µM [falling, partial curve, poor fit] | 
44 | COc1ccccc1N(C)S(=O)(=O)c1ccc(Cl)c(C(=O)OCc2c(C)noc2C)c1 | 11.2 µM [falling, partial curve, poor fit] | 3.55 µM [falling, partial curve]
45 | Cc1cn(S(=O)(=O)c2cc(Br)ccc2Br)cn1 |  | 1.78 µM [falling, partial curve, poor fit]
46 | CCOc1ccc(NS(=O)(=O)c2ccc3c(c2)oc(=O)n3C)cc1 |  | 14.1 µM [rising, single point]
47 | CCOC(=O)c1cnc(SCc2nc(N)nc(Nc3ccc(F)cc3)n2)nc1N |  | 11.2 µM [rising, single point]
48 | C[C@@]12C(=O)OC(=O)[C@]1(C)[C@H]1CC[C@@H]2O1 | 1 µM [falling, full curve] | 1.12 µM [falling, full curve]
49 | O=C(O)CCC/C=C\C[C@@H]1[C@@H](/C=C/[C@@H](O)COc2cccc(C(F)(F)F)c2)[C@H](O)C[C@@H]1O | 0.355 µM [rising, partial curve, poor fit] | 
50 | COc1ccc(S(=O)(=O)N(C)CC(=O)N2CCN(Cc3ccccc3)CC2)cc1C |  | 10 µM [rising, partial curve]
51 | O=C(NCc1ccco1)c1ccc2c(c1)N(Cc1ccc(Cl)cc1)C(=O)c1ccccc1S2 | 5.01 µM [falling, partial curve, poor fit] | 
52 | O=C(Nc1ccc(F)cc1)Nc1cc(OCC(F)(F)F)cc(OCC(F)(F)F)c1 |  | 6.31 µM [rising, full curve]
53 | CCN(CC)S(=O)(=O)c1ccc(NC(=O)c2c(-c3ccccc3)noc2C)cc1 | 12.6 µM [rising, partial curve] | 11.2 µM [rising, partial curve]
54 | O=C(O)c1cccc(N/N=C/C2=C(Cl)c3cc(Cl)ccc3SC2)c1 | 0.891 µM [rising, full curve, poor fit] | 0.0708 µM [falling, partial curve, poor fit]
